Here are results for two molecules from paper PMC7288537.

The chains behind the UniProt entries cited, without tags or fusion partners.
UniProt O95863: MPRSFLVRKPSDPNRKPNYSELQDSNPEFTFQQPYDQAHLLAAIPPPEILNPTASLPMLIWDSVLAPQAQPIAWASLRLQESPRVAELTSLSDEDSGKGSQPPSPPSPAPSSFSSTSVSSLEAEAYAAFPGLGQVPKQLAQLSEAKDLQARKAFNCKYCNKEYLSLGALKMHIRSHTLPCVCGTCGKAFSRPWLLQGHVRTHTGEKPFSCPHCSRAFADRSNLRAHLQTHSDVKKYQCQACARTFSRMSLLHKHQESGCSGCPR

For this test, the target named is Snail1 protein, endogenous in A549 and H322 cells (human (endogenous in A549 and H322)) (UniProt O95863). Nature of the test: co-IP; cell lysate (RIPA buffer) incubated with antibody-conjugated magnetic beads for 1 h at room temperature, eluate blotted; Fig. 5g A549 cells, Fig. 5h forward and reverse Co-IP; precipitating antibodies not named.

Results are given in words; binding and its absence hold for the method and conditions named. Binding seen in cells or lysates may run through a third protein. Some results given as binding are weak or reduced against the parent protein; the word gives no strength.

B1: Tripartite motif-containing protein 2 (TRIM2), endogenous in A549 cells (protein, UniProt Q9C040 1-744)
chain: MASEGTNIPSPVVRQIDKQFLICSICLERYKNPKVLPCLHTFCERCLQNYIPAHSLTLSCPVCRQTSILPEKGVAALQNNFFITNLMDVLQRTPGSNAEESSILETVTAVAAGKPLSCPNHDGNVMEFYCQSCETAMCRECTEGEHAEHPTVPLKDVVEQHKASLQVQLDAVNKRLPEIDSALQFISEIIHQLTNQKASIVDDIHSTFDELQKTLNVRKSVLLMELEVNYGLKHKVLQSQLDTLLQGQESIKSCSNFTAQALNHGTETEVLLVKKQMSEKLNELADQDFPLHPRENDQLDFIVETEGLKKSIHNLGTILTTNAVASETVATGEGLRQTIIGQPMSVTITTKDKDGELCKTGNAYLTAELSTPDGSVADGEILDNKNGTYEFLYTVQKEGDFTLSLRLYDQHIRGSPFKLKVIRSADVSPTTEGVKRRVKSPGSGHVKQKAVKRPASMYSTGKRKENPIEDDLIFRVGTKGRNKGEFTNLQGVAASTNGKILIADSNNQCVQIFSNDGQFKSRFGIRGRSPGQLQRPTGVAVHPSGDIIIADYDNKWVSIFSSDGKFKTKIGSGKLMGPKGVSVDRNGHIIVVDNKACCVFIFQPNGKIVTRFGSRGNGDRQFAGPHFAAVNSNNEIIITDFHNHSVKVFNQEGEFMLKFGSNGEGNGQFNAPTGVAVDSNGNIIVADWGNSRIQVFDGSGSFLSYINTSADPLYGPQGLALTSDGHVVVADSGNHCFKVYRYLQ
Consider B1, for which the binding result was “binds”.

B2: Tripartite motif-containing protein 2 (TRIM2), overexpressed in H322 cells (protein, UniProt Q9C040 1-744)
chain: B1 chain
With B2, the binding entry is “binds”.
